# Measurements from article PMC10864350, “Phosphorylation-dependent deubiquitinase OTUD3 regulates YY1 stability and promotes colorectal cancer progression” (Cell Death & Disease, 2024).
# The chains behind the UniProt entries cited, without tags or fusion partners.
# UniProt P25490: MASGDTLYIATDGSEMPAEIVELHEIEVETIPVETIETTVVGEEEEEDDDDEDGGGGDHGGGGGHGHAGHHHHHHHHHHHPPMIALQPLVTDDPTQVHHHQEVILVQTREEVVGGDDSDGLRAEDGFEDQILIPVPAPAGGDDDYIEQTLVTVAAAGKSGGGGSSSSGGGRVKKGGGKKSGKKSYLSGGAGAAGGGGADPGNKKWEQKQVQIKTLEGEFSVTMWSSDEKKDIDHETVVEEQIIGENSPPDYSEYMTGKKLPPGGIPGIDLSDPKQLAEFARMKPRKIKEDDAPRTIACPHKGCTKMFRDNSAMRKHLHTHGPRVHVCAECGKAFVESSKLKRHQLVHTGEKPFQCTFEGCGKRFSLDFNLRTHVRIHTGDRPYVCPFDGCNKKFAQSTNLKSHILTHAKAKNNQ
# UniProt Q5T2D3: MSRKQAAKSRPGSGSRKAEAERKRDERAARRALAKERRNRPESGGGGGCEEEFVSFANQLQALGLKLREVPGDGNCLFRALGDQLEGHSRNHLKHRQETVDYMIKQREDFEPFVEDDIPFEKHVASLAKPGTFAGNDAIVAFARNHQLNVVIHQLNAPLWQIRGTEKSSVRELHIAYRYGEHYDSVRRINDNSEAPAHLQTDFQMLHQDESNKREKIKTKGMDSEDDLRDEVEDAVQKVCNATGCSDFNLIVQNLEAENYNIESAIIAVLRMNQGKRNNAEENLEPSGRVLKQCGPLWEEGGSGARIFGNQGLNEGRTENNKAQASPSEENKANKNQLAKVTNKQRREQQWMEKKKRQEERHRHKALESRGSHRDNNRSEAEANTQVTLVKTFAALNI
# UniProt P53350: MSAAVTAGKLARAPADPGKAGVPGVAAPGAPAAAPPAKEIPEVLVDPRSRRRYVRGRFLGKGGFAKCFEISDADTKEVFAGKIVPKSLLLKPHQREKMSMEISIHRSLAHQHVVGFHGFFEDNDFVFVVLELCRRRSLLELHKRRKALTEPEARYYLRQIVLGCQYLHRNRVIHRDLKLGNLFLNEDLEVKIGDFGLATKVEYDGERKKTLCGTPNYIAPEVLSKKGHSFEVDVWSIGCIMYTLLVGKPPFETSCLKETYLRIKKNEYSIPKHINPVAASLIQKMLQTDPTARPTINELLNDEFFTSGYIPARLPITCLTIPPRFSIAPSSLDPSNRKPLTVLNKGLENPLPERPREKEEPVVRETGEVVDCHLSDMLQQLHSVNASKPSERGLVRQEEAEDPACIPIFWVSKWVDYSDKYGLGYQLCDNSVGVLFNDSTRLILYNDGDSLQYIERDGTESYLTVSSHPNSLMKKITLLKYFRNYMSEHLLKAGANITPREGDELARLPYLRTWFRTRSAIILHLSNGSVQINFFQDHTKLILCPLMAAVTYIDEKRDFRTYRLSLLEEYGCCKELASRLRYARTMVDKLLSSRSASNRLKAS
# Results are given in words; binding and its absence hold for the method and conditions named. In cells and extracts the contact can be indirect. A yes stands for co-enrichment or nearness to the bait. Other partners may have been found.
# Legend:
# [1] = target: Flag-tagged YY1 (Yin Yang 1), full length, wild type (UniProt P25490); experiment: affinity purification with mass spectrometry; tagged bait transfected into CRC cells (Flag-YY1 in SW480; HA-OTUD3 in DLD1), immunoprecipitation with anti-Flag or anti-HA magnetic beads, Coomassie staining, LC-MS/MS
# [2] = target: HA-tagged OTUD3, full length, wild type (human) (UniProt Q5T2D3); experiment: as above
binding [1],binding [2],Substance
binds,–,endogenous OTUD3 (from UniProt Q5T2D3 1-398) (enzyme)
–,binds,endogenous Polo-like kinase 1 (PLK1) (from UniProt P53350 1-603) (enzyme)
